No constants are given. Whether binding was seen depends on the method and setting. In cells and extracts the contact can be indirect. A yes stands for co-enrichment or nearness to the bait. Other partners may have been found.
B1: GTP-binding protein (SAR1) (protein, UniProt C4M4L8 1-190)
chain: MWIWEWFWNLLADLGLAYKTGKMLFLGLDNAGKTTLLHLLKDGKVSQHIPTQQPTMEELVMGNIKFNTYDLGGHTPARKVWKTYCTEVDAVIYIVDCAAPERFGESKKELDSLLNDEMLQNTPFLILGNKIDIPGAVSEAQLREAMGLTHTTGKGNVTCEGIRPIEVFMSSIVNRQGYPEGFKWISQYMK
B2: Pyruvate, phosphate dikinase (protein, UniProt P37213 1-885)
chain: MQRVYAFEDGDGTNKKLLGGKGAGLCTMTKIGLPVPQGFVITTEMCKQFIANGNKMPEGLMEEVKKNMQLVEKKSGKVFGGEENPLLVSVRSGAAMSMPGMMDTILNLGLNDKTVVALAKLTNNERFAYDSYRRFVSLFGKIALNVDDEVYDKTLENKKVEKGVKLDTELDANDMKELAQVFIKKTEEFTKQPFPVDPYAQLEFAICAVFRSWMGKRAVDYRREFKITPEQADGTAVSVVSMVYGNMGNDSATGVCFTRDPGTGENMFFGEYLKNAQGEDVVAGIRTPQIISKMAEDADLPGCYEQLLDIRKKLEGYFHEVQDFEFTIERKKLYMLQTRNGKMNATATVRTGVDMVEEGLITKEQAIMRIAPQSVDQLLHKNMPANYAEAPLVKGLPASPGAATGAVVFDADDAVEQAKGKKVLLLREETKPEDIHGFFVAEGILTCRGGKTSHAAVVARGMGKPCVSGAEGIKVDVAKKIAKIGSLEVHEGDILTIDGSTGCVYKGEVPLEEPQVGSGYFGTILKWANEIKKIGVFANADLPSAAKKALEFGAEGIGLCRTERMFNAVERLPIVVKMILSNTLEERKKYLNELMPLQKQDFIGLLKTMNGLPVTVRLLDPPLHEFLPTLEELMREIFEMKLSGKTEGLAEKEVVLKKVKELMEVNPMIGHRGIRLGTTNPEIYEMQIRAFLEATAEVIKEGIKTHAEIMIPNVTEVNELINLRKNVLEPVHEEVEKKYGIKVPFMYGTMVECVRAALTADKIATEASFFSFGTNDLTQGTFSYSREDSENKFIPKYVELKILPANPFEILDRPGVGEVMRIAVTKGRQTRPELLVGICGEHGGEPSSIEWCHMIGLNYVSCSSYRIPVARIAAAQAQIRHPREN
B3: EhVps45A (protein, UniProt A0A8U0WPJ0 1-529)
chain: MNVIHALQEYLNFTFSETPGMKALIMDSDTIPVVSILFGMTEIIQKEVYLVQQLSDQTRDTLPHLNAICLLRPTKENMELLRKELNNPKYGKYYLFFTNFLDSTQISLLSQSDVHEVVQKVMELYVDYMPVNDDLFISSCPNYYSVNGPNSMKNEQKTIDSLMALCLSLKKNPAIRYQQNSELSKRIAEGLTQGLERQKKIFGPMNGTTLLILDRSFDPITPLLTQWTYQAMIHEFIGIENGKIILDNKPIILSNDSFFNEHMYLLFSDITDSIIASVNELTKKAGVASKQYRSLEEMKETIEQIPQLKKESAGVKKHLGIMNVINKTVSRRKMLDVSRLEQDIVCGSGRQELYQNVIQFFEGDYEVEDKLRVGLLYALKYEDKAQDIIEELTIKGIPKDRIQLIDIVLRYAGSSKRPIEIFNKVKSIVGFVKKSVAGVENVFVQHKPVLEQLYDPLINQQLLEKFPFCRGSSANGREFIIYIVGGVTLEEEVSIATRNRTNPTQKFIIGGSDLLNSSKFIEQLETMKK
B4: p21-activated kinase (protein, UniProt A0A8U0WPI5 1-467)
chain: MKSWKRKWVRLTKTDVYVFDSPTKNTPILTIPLQRTVVSLVASMGDSYLKLDSKKLGKQFIFNAPCKDQAERWVTAINNTIDAGLTRPSGMTQVVHVDFDPNLGYIGLPPEWERFLNEGGITTDEYKKNKDVVDDVLNFQIQRQGDKTNLPSVPAPISQPKQSKAVVEPLPEDVEKVQLKDVTIEQDPREFYSDFEKIGEGASGEVFSAKRKADGIVVALKQMEVNNDNEKLIATEISLMKGCKHDNVVTFYEAFYLPAKKLMWMSMEYMDGGCLTDILENHDIIEMTEPQIAYVCRETLRALNFIHGLHCIHRDIKSDNMLLTNDGHVKLADFGYAAQLNQKQKNRNTVVGTPYWMAPELIRGHDYGVKIDIWSLGIMVMEMAEGDPPYMEFPPLRALFLITTKGIPPLKNAEKWSRDMNGFVARCLETIPDNRADSEELLQHPFMKIACENTDFAQLIADVRKLA
B5: Protein disulfide isomerase (protein, UniProt C4MB38 1-368)
chain: MLLKTNQKISSVNVEHCQNTDKRELMKYKVLMKFLLFTLLTFLVSADVVSLNPTNFNTIVDGSKHVFVKFFAPWCGHCKKLAPEYIKLADAYKDKQDIVIAELDCDNKDHKDLCGKFGISGFPTLKFFRKGTTEPIEYEGGRTVEDLSHFIQEKIQPKAPSNVVSVTTATFDSIVMDPTKNVFVKFFAPWCGHCKALAPKYIEVSKMYAGEDDLVVAEVDCTANQETCNKYEVHGYPTLKSFPKGENKKPIAYEGGREVKDFVTYFNTNYGYDRDENGKLGKTAGRIAELDDLAKGFANKENKDEIIKKAEAIEGGAYYVKVMKRIIERGADYVEKEKARINKILENPSMKAKKIDDFTRNLNVLEVF
B6: EhRabX11 (protein, UniProt A0A8U0WPU0 1-209)
chain: MEESKEALQLKIIVIGEPSVGKTSTIRKYCHGVFDQLYRATIGVDFAVKFTTVDERDVELRLWDIAGQEKYIAMTRVYYNGAHGAIIMYDLTNPDTFAATDRWKEDLENKVKFNEQSIPALLVGNKADCLSEEELKKAQEDLMAKVAEQKYSDGILTSAKSGLAVEEAMAKITRLIFKQFSDLVNPKPDANNVDISKQGQQTQKEGGCC
B7: LIM zinc finger domain containing protein (protein, UniProt C4LWF5 1-145)
chain: MSAKKCFACGKSAYPLERITAGGKDYHNACFKCKECGLHLTLKNFFFDQGTQAVYCKNHVPKATATAVTDSIAIKQALNAPKKEAENIGTVQKGAGGKPHSVVFGDSSERREEAAPTEQPQEEVHEEVHEEEVHEEEVHEEEEGF
B8: Uncharacterized protein (EHI_069560) (protein, UniProt C4LWP4 1-207)
chain: MIFLLLPLLVFSQECVLRDINYSKLTKPKNDPYLLSYPAYTFHFNICGPVDDNGNVAVAIADDVTYSLGKYSTQEPFTDNNGNGFKYAGGSKSRSGNLWSSSIYIKCDNTVTKDIIQVSTADFDKATVSFEIRGPSACVVEESKKSLSPVAIIFIIIAVIVCVILIVFGSWCLVNFFIGKRGIAVLPLYSIFHKQQDAFATEKANLI
B9: Rho GDP exchange inhibitor (protein, UniProt C4M6L6 1-175)
chain: MSAADIVKNEKDPSLVAYLKSLGIDPDYVPPKDDPRRVVISEFAVLFKEHDPVILKLNTEEDMEKAKKTPIIIKEGAEFKMRVTFRVQHQPVLGLRILNTVSKLGKQVASDEEMLGSYPPKNEFNALELPKNDWNEAPTGMLARGEYKSNVKFYDDDKVTHLQFDYLIKIAKDWD
B10: Uncharacterized protein (EHI_016130) (protein, UniProt C4MAN6 1-510)
chain: MSNKQTDIKTKDEVVQIERCTTETYQLMKKIIPNYKKLADACEGYFKAQLVMIKATDTLYNCLEAMADTSLEEGGQQTHPDLQVGVKNMSNVLKMWKENLMSVCDEFRSTCSCIRGDVTTFPKEIEAKEKEYKSQKKKEVDEVSKVEKKLSSVSKNTKLQAKDPKALADAITAVTKKESEYQHFLMNGLKDSLSMFRGTYGQLFECFRKLFICKTDTDNKSQLIISANMEDMQKLIKTSKGLPQKYRSLVTMKKQSMINTTWLSPELKEILKAAGVKPKHLADPTIVETLIQTVKQAVQQGTVPKDLLDQLEASRANKEDKLSKVIEVEDIVVPDRRPPPTPIARSSPRTAAPTTPAVATAPVPAAPADIPPPPPPTAPMMDNIPPPPPVAPAIGNPPPPPPIAPPKQAGNPPPPPPIRSTNSAGNPPPPPPARQTAAPAPANGNLLADIRSGITLRSAADRKLDTAAPVVSDAGKQDLTSMLRKAMEVRRNDIADDEDDDDDDDDEWSD
B11: EhRabC1 (protein, UniProt A0A8U0WNZ6 1-204)
chain: MAAKAHYDHLFKILIIGESGVGKTAIMQRLCEDTYDNVYISTVGVDFKPKILNIRNKTVKMQIWDTAGQERFRNITASYYRNAQGVIIVYDVNDIGTLEKVDSWFNEVKERTGANPPVVFLVGNKSDSPNPTVSKEMVKNVVNNLGGIPDYNCSAKEGTGVNEIFNALAEAMMDKSNQGGNGSTKPNELTNLTDKPKDNGKGCC
B12: Rab GDP dissociation inhibitor alpha (protein, UniProt B1N309 1-439)
chain: MDDTYDTIVLGTGLKECILSGLLSVDGKKVFHLDKNDYYGGASASLNLKQLFDTFANGKPAPESLGRPRDYNIDIIPKFIMSSGEMVNLLLHCNVHNYLQFRAIHGSYVFTKGKVYKIPATVAETVSTPLLGFFEKNRFKNFLTYLQNYDENKPETHKGRNLKTMTMAQLFKDFSLDDATIEFVGHTIALYREDSYLTRPAIETVKKIVLYFESLSRFQKSPYIYPEYGLGELPQAFARMSALYGGTYMLRAKIQEIVFENGRVAGVKFESGEVAKCSNIIADPSYFPDKVKKVGQVIRAICILNHPVANTDNAESCQIIMPQKQVGRKSDIYISVLSGNNQVCPKGKYIAIVGTTVETSNPEKEVEVGLKLLQPIEQQFISITDSFEPINDPKQDGVYITKSYDATSHFETTVEDCLEMYTTITGKKLEMKGPNETSQ
B13: EhUbI1 (protein, UniProt C4M760 1-77)
chain: MQIFVKTLTGKTITLEVEPNDSIDAIKAKIQEKEGIPPDQQRLIFAGKQLEEGKTLSDYNIQKESTLHLVLRLRGGY
B14: EhVps35 (protein, UniProt C4M4G0 1-746)
chain: MSKKVQQVDPVTESNQKQNNMAMYTDLMRRAMDHKNYNEALENAYKICEQMNTTNLIPAQYYNLYLVLQQCLSVLDMYLRTDYIADGNDILDLYEEVQTYQCAVARLYLMCIVGSAAVKSKKVGIVVFLKDIIEMSRAVQHPTKGIFLRNYILDCVKSILPSSTTEEPSEGNLINSIEFLLNNFSEMCRLLVRLTQGPQVTEQKVEEQQQLCQVVGKNLMIMSNLDGVSLELYSTNILPRFLEQVLLSRDKVTQDYLYDALIQAFPADYQLATLHLLLHSLGGVVANVGIRRILCSLMERISSYVSANPQIERNMDMFKIFSTHISQIVKTQTLTCEEYVSVYATLAHLVIVWHNEDDAYTQLNAINDNVYDYLTTQQNISIEAANALMSLLQFPFTKYNVLKVIQLRVYPELINLLPYTLRHETHRFVAKKVTEKNHISSTGDIMVLTIRCIETLYQDTKDMTPLNDEELAIDCNLFKTVALSSTVSTESFFDIVREVKNAVKNAGNRRSLMILPTVISMYLRAIPVITDKKDDMFKCVFDILKTLKTLSHFVALKCCVEVGSAAAQAKYSQASYFFETALTMYEDETDIPKEESLKLILSTLASCSLEDDMNEVYIIGCGKFIQLLQDSFQKGKLYCQVSSALFNEQRKVAKQSVSYLQKAVKEAGLCQVAEQNIELLIDILNIYIIHFIRDNSEITAEYINNFANVIKESISQTEIPKLQSYYKETADYIATRTEDKVKQLQL
B15: Rab family GTPase (EHI_164900) (protein, UniProt C4M1Y3 1-264)
chain: MSDTKETVPTNNEEKLDIEPKKDIKEEVKPEEEHKEEEHKEEKPEEVKPEEVKPEEVKPEEVKPEEEKKNESNEQQKVKVIMVGESSVGKTCCMNRYVSNEFAEQTKATIGVGVGSKEVEVEGKHIKLQIWDTAGQERFATLTGNYFRNAMAAIIMFDVSNKESFENIPNWVEQCCKSDGKHIIFIAGNKIDLENRVVSKEEAEEKAKELKLKYFEVSAKTGDGIEDLFNELIKEIMKTPFCNEQEKEGVELDGQKKQKKGGCC

Molecular target: EhVps23 (E. histolytica (endogenous in HM1:IMSS trophozoites))
Assay: affinity purification with mass spectrometry; immunoprecipitation with α-EhVps23 antibody and protein G-agarose from trophozoite lysates (10 mM Tris-HCl, 50 mM NaCl, protease inhibitors, freeze-thawing; pre-cleared with Protein-G, 2 h at 4°C); precipitate separated by gel electrophoresis, LC-ESI-HDMSE

Row | Binder | binding
1 | B1 | binds
2 | B2 | binds
3 | B3 | binds
4 | B4 | binds
5 | B5 | binds
6 | B6 | binds
7 | B7 | binds
8 | B8 | binds
9 | B9 | binds
10 | B10 | binds
11 | B11 | binds
12 | B12 | binds
13 | B13 | binds
14 | B14 | binds
15 | B15 | binds

Source: paper PMC8964110
